This is an account of results in the supplement of paper PMC4604168 (melanoma cell lines).

Some of the results follow. Many values rest on one well or one pass, so single values are uncertain.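 The apoptosis fraction was the count of cleaved-PARP antibody-stained nuclei relative to all DNA-stained nuclei, imaged in 1,536-well plates. Screening doses were set so most cells survived, and baseline and induced cleaved-PARP levels vary greatly across cell lines.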

The subject of the assay is UACC62. The assay can be described thus: cleaved PARP positive nuclei fraction relative to DMSO control; melanoma cells; higher = more apoptosis. The settings on record: library dose: low library concentration; 72 h.
For the molecule `C[C@]12O[C@H](C[C@]1(O)CO)n1c3ccccc3c3c4c(c5c6ccccc6n2c5c31)CNC4=O` [Lestaurtinib] + CCN(CC)CCCCNc1ncc2cc(-c3cc(OC)cc(OC)c3)c(NC(=O)NC(C)(C)C)nc2n1 [PD173074] (first compound 0.004 µM, partner dose 0.1 µM), the “cleaved PARP positive nuclei fraction” value is 135%. In the case of `N#Cc1c(O)c2c(-c3ccc(-c4ccccc4O)cc3)csc2[nH]c1=O` + O=C(Oc1ccc([N+](=O)[O-])cc1)N1CCC(C(O)(c2ccc3c(c2)OCO3)c2ccc3c(c2)OCO3)CC1 [JZL184] (first compound 2 µM, partner dose 1 µM) it was 73.1%. Under `C[C@]12O[C@H](C[C@]1(O)CO)n1c3ccccc3c3c4c(c5c6ccccc6n2c5c31)CNC4=O` [Lestaurtinib] + O=c1cc(-c2cccc3c2Sc2ccccc2S3)oc(N2CCOCC2)c1 [KU55933] (first compound 0.004 µM, partner dose 1 µM) stands 177%; under `CCc1ccc(CCOc2ccc(CC3SC(=O)NC3=O)cc2)nc1` (stereo not given) [pioglitazone] + O=C(Oc1ccc([N+](=O)[O-])cc1)N1CCC(C(O)(c2ccc3c(c2)OCO3)c2ccc3c(c2)OCO3)CC1 [JZL184] (first compound 2 µM, partner dose 1 µM), 34.2%. Regarding `COc1cc2c(Oc3ccc4[nH]c(C)cc4c3F)ncnc2cc1OCCCN1CCCC1` [cediranib] + Cc1cc(SCc2sc(-c3ccc(C(F)(F)F)c(F)c3)nc2C)ccc1OCC(=O)O [GW0742] (first compound 0.4 µM, partner dose 2 µM), the “cleaved PARP positive nuclei fraction” value came out at 39%.
